Data published in PMC6251927.
Results are given in words; binding and its absence hold for the method and conditions named. Binding seen in cells or lysates may run through a third protein. Some results given as binding are weak or reduced against the parent protein; the word gives no strength. For part of these data: Sequences can lack the tags named with a protein. One block for each molecule: values may come before it.

By UniProt entry, the sequences of proteins in these tests, tags left out.
UniProt Q9NFU0: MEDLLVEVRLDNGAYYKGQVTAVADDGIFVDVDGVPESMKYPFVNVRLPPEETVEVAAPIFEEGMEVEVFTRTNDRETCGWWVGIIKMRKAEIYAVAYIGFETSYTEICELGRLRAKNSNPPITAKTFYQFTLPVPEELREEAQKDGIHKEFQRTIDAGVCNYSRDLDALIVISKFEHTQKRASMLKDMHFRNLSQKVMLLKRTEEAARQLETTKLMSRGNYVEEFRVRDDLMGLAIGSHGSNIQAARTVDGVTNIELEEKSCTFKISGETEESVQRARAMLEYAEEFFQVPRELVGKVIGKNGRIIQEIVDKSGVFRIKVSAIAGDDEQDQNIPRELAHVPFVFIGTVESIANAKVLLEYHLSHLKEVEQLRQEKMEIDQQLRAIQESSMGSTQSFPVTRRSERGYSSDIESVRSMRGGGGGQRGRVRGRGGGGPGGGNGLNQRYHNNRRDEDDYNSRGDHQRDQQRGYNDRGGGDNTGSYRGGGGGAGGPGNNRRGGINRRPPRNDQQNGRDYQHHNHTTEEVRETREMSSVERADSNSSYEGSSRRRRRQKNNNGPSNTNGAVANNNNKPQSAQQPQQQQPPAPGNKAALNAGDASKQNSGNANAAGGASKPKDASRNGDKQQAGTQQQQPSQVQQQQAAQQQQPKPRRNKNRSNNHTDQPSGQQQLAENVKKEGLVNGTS
UniProt P19109: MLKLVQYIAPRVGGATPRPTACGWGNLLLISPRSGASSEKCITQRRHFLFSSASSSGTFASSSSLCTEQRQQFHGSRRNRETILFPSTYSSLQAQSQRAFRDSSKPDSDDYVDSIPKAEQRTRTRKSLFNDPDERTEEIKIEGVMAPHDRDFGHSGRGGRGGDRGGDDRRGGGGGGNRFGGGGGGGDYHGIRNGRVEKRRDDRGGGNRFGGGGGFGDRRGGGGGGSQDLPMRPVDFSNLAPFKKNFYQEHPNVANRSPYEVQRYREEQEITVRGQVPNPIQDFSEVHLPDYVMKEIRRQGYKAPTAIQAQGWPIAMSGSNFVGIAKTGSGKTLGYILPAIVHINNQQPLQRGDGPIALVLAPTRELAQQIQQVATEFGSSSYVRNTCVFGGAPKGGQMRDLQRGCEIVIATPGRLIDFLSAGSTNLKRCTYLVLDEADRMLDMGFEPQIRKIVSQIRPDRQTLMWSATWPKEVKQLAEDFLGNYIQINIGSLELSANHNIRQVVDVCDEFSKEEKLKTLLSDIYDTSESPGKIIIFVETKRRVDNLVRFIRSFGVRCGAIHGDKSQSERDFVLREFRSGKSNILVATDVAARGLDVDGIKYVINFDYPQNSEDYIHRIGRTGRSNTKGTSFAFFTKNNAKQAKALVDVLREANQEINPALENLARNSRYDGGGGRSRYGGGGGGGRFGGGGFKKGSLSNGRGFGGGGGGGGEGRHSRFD

Legend:
[1] = target: Drosophila FMRP (Drosophila (endogenous in S2 cells)) (UniProt Q9NFU0); experiment: co-IP; FMRP IP-Western from S2 cells inactivated of TDRD3 by CRISPR and control cells
[2] = target: T1, HA-tagged VIG (Drosophila) (UniProt Q9V426); experiment: co-IP; HA antibody IP from S2 cells transfected with HA-tagged p68, VIG or AGO2, immunoblotting (reciprocal IP-Western)
T1 sequence: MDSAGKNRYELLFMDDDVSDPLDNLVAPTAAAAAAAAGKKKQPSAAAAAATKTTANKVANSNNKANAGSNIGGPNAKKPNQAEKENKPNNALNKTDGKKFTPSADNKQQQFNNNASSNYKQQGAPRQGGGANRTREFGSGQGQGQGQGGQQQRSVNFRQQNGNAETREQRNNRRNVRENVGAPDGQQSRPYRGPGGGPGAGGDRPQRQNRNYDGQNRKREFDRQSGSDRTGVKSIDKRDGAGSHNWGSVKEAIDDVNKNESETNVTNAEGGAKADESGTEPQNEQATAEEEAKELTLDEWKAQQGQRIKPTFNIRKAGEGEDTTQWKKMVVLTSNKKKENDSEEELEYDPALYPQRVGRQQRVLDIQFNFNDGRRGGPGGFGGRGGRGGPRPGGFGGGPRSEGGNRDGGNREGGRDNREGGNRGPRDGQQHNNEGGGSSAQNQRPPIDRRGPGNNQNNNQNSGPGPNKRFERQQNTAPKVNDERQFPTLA

[3] = target: T2, HA-tagged AGO2 (Drosophila) (UniProt Q9VUQ5); experiment: as above
T2 sequence: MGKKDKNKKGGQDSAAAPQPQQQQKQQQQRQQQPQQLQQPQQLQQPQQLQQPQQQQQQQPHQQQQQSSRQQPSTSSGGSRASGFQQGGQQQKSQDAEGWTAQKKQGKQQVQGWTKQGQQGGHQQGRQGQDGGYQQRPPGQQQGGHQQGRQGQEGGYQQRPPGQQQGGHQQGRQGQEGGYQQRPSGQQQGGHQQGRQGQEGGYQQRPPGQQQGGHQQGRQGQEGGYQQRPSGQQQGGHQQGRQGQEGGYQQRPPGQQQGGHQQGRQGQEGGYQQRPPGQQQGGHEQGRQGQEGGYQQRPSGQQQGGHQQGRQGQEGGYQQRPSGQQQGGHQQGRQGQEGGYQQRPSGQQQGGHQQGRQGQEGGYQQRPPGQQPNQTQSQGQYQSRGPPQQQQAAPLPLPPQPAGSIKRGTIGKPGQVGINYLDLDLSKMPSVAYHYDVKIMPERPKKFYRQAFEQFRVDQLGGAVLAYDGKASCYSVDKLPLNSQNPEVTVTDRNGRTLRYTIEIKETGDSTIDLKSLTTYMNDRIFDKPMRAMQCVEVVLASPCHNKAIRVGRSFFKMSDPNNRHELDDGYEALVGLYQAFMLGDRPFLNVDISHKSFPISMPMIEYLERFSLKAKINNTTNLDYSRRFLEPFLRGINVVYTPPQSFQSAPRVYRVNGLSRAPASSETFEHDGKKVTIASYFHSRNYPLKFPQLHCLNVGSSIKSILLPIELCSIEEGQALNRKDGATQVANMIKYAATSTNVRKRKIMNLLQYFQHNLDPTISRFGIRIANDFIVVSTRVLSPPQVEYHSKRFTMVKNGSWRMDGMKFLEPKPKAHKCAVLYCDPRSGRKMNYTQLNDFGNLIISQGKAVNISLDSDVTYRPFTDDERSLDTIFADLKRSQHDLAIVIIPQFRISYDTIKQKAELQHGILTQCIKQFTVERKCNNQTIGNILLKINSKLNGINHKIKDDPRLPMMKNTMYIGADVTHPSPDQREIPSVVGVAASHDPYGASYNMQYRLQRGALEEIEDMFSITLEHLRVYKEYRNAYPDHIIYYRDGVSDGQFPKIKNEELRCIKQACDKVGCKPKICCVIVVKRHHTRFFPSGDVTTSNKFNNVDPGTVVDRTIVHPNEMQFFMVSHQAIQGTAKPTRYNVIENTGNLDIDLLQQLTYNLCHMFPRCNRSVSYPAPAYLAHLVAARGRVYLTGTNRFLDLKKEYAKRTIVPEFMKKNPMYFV

binding [1]: binds
Molecule: p68 RNA helicase (encoded by Rm62) (from UniProt P19109 1-719) (enzyme)

binding [2]: binds | binding [3]: binds
B1: Drosophila Top3β (Topoisomerase 3β) (enzyme, UniProt O96651 1-875)
chain: MKSVLMVAEKPSLAASLAGILSNGRCTAKRGTGNGCSTHEWTGNFRNEGSVHFRMTSVCGHVMSLDFNKKYNCWDKVDPIQLFGCATEKKETNPKQNMRKFLAHEARGCDYLVLWLDCDKEGENICFEVMDAVKHVINNVYSDQVTYRAHFSAITEKDIKKAMETLGHPNENEAKSVDARQELDLRIGCAFTRFQTKFFQDRYGDLDSSLISYGPCQTPTLGFCVKRHDDIQTFKPESFWHLQLLAGQPEVTLEWARGRVFKKDIAIMLLNRVKEHKKATVESVASKEAYKSKPQALNTVELMRICSSGLGIGPFQAMQIAERLYTQGYISYPRTETNQYPTNFDLPAVLHVLKPSADFGEEARSILGDIQTPRKGKDAGDHPPITPMKLGNRSDFDRDTWRVYEFICRHFMGTVSRDLKYRVTTAKLSVGMETFSCTASVLIDAGFTKVMTWSAFGKDEPQPPFVQGTQVAINDVRLIESQTGPPDYLTESELITLMEEHGIGTDASIPVHINNICQRNYVHIENGRKLMPTTLGIVLVHGYQKIDPELVLPTMRTEVERMLTLIAQGSANFQDVLRHAIKIFKLKFMYFVKNIDSMDALFEVSFSPLAESGKAHSRCGKCRRYMKYIQTKPARLHCSHCDETYALPIGNVKVYREFKCPLDDFDLLAFSTGVKGRSYPFCPYCYNHPPFSDMPHLGGCNTCTNANCPHSLNTLGISSCVECPTGVLVLDCTLAPTWKLGCNRCDVIINCFKGATKITVEEAKCQECGAQQVNVVYKSDKSKFKDGSEEKSGCIFCSADFSHLVEKHRAVASRPVRSGGGFRGGKAGRGGGGMGGAAFGSGGAVTAGGGPNAGGGVRGSRVAKDKMGQLASYFV
